From patent US20240374727A1
Results are given in words; binding and its absence hold for the method and conditions named. Some results given as binding are weak or reduced against the parent protein; the word gives no strength.

Key:
[1] = target: T1, human C-C Chemokine receptor 9 (CCR9) (human) (UniProt P51686); experiment: flow cytometry on wild-type P12-Ichikawa versus CCR9 knockout cells
T1 sequence: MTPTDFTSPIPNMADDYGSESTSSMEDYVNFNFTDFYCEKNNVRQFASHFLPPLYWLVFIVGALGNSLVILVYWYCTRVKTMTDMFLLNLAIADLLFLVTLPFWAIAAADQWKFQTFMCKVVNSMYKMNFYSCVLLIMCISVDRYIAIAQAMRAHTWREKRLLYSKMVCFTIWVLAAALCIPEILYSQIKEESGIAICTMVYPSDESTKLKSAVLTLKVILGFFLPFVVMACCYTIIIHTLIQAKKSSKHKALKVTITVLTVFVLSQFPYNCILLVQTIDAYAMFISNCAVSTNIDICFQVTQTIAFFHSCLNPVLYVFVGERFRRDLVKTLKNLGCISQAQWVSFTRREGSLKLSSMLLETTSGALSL

[2] = target: T1, human C-C Chemokine receptor 9 (CCR9) (human); experiment: flow cytometry on P12-Ichikawa cells

binding [1]: binds
binding [2]: binds
B1: 9G7 single chain variant fragment (scFv) (scFv)
scFv: QVQLKESGPGLVQPSQTLSLTCTVSGFSVASYDMHWVRLPPGKGLEWMGIIWANGNTHYNSGLKSRLSISRDTSKSQVFLKMNSLQTEDTAIYFCTRGGFAYWGQGTLVTVSASGGGGSGGGGSGGGGSDVVMTQTPVSLSVSLGGQVSISCRSSQSLVHNNGNTYLSWYLQKPGQSPQLLIYKVSNRFSGVSDRFSGSGSGTDFTLKISRVEPDDLGVYYCGQGTQYPTFGGGTKLELK
